{"sequences": {"note": "Chains of the proteins cited; added tags and fusions are not shown.", "UniProt Q5AAJ8, whole entry, looked up": "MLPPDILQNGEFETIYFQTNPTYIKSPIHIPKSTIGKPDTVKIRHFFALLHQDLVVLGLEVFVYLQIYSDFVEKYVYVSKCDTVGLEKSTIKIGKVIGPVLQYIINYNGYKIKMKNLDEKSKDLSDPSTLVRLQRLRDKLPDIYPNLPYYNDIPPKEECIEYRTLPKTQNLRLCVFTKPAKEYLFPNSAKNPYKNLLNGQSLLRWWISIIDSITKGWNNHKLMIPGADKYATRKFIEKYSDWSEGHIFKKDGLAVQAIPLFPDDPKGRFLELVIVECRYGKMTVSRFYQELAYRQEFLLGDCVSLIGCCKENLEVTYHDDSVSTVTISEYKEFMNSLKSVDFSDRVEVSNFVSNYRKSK"}, "source": "PubChem BioAssay AID588764", "about": "(Broad Institute, 2011)", "note": "Inconclusive means that the source gave no clear call. Such entries were picked first, then a sample of the others. Activity calls are given as the source filed them. How the calls were made is not given here."}
{"target": "Histone acetyltransferase RTT109 (Candida albicans (strain SC5314 / ATCC MYA-2876)) (UniProt Q5AAJ8)", "assay": "C. albicans Rtt109 HAT inhibition curves – biochemical, cherry-picked hits, plate reader, dose response (AID 588764);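 further: 0% = neutral control wells and -100% = no enzyme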", "settings": "Rtt109/Vps75 HAT activity; at 19.5 µM (top of the series)"}
{"smiles": "COc1cc(NC(=S)NCc2cccnc2)c(OC)cc1Cl", "activity change, negative = inhibition": "inconclusive: -25.4%"}
{"smiles": "Cc1cc(O)c(C(C[N+](=O)[O-])c2ccc(Cl)cc2Cl)c(=O)o1", "note": "(centres undefined)", "activity change, negative = inhibition": "inconclusive: -14.9%"}
{"smiles": "Cc1c(C(=O)Nc2ccc(S(=O)(=O)N(C)C3CCN(C)CC3)cc2)oc2c(Cl)cccc12", "activity change, negative = inhibition": "inactive: 1.47%"}
{"smiles": "CC[n+]1c(/C=C/c2c[nH]c3ccccc23)ccc2cc(C)ccc21", "activity change, negative = inhibition": "inconclusive: 13.2%"}
{"smiles": "Cc1ccccc1N1C(S)=C(C#N)C(=O)NC12CCCCC2", "activity change, negative = inhibition": "inactive: 2.94%"}
{"smiles": "C[C@@H](CN1CCC[C@H]1CN1C(N)=NC[C@@H]1Cc1ccccc1)N1C[C@@H](Cc2ccccc2)N(CCc2ccc(Cl)c(Cl)c2)C1=N", "activity change, negative = inhibition": "inconclusive: -10.3%"}
{"smiles": "COc1cc(SC#N)ccc1N=Cc1c(C)[nH]n(-c2ccc(C)c(C)c2)c1=O", "activity change, negative = inhibition": "inactive: 4.44%"}
{"smiles": "COc1cc2ccc(=O)oc2c(O)c1O", "activity change, negative = inhibition": "inconclusive: 20.6%"}
{"smiles": "CC(C)C(C(=O)Nc1cccnc1)N1C(=O)c2ccccc2C1=O", "note": "(centres undefined)", "activity change, negative = inhibition": "inactive: -1.51%"}
{"smiles": "Fc1ccc(NC(=S)Nc2ccc(Br)cc2)cc1", "activity change, negative = inhibition": "inactive: 4.54%"}
{"smiles": "Cc1cc(Cl)c(S(=O)(=O)N2CCCC2)cc1OCC(N)=O", "activity change, negative = inhibition": "inactive: 9.09%"}
{"smiles": "CCCC(=O)Nc1ccc(C(=O)NNC(=S)NC(=O)c2cccs2)cc1", "activity change, negative = inhibition": "inconclusive: -11.3%"}
{"smiles": "CCCCCN=C(N)N/N=C/c1c[nH]c2ccc(OC)cc12", "activity change, negative = inhibition": "inconclusive: -5.8%"}
{"smiles": "Cc1ccccc1C(=O)NCCNC(=O)c1ccco1", "activity change, negative = inhibition": "inactive: 0%"}
{"smiles": "CCNC(=O)NC(=O)CSc1nnc(-c2c[nH]c3ccccc23)o1", "activity change, negative = inhibition": "inconclusive: -26.5%"}
{"smiles": "Cc1cc(C)nc(Sc2nc(Cl)nc(N(c3ccccc3)c3ccccc3)n2)n1", "activity change, negative = inhibition": "inconclusive: -8.27%"}
{"smiles": "O=C(/C(=N/N=C/c1ccc(O)c(O)c1O)c1ccccc1)c1ccccc1", "activity change, negative = inhibition": "inconclusive: 7.35%"}
{"smiles": "CCCCOc1ccc(C2C(C(=O)c3ccc(C)o3)=C(O)C(=O)N2Cc2ccco2)cc1", "note": "(centres undefined)", "activity change, negative = inhibition": "inactive: 8.82%"}
{"smiles": "O=C(CSc1cn[nH]n1)Nc1cccc(C(=O)O)c1", "activity change, negative = inhibition": "inconclusive: -17.6%"}
